Laboratory results from the supplement of paper PMC12823440, “Inhibitors supercharge kinase turnover through native proteolytic circuits” (Nature, 2025).
Structures can show the parent of a compound that is named as a salt. This is one part of the list. Hit calls seldom repeat between salt and free forms of one compound.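 Kinases, fused to nanoluciferase, were expressed in K562 cells; luminescence was measured every 4 h from 2 to 18 h as percent of control (DMSO = 100%, positive control = 0%). A time point is decreased if signal falls significantly (2 sigma). Hits were called by the authors by a rule that is not shown; the count of time points alone does not decide it.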

Sequences of proteins named here, by UniProt entry; tags and fusion partners are left off.
UniProt P28482, whole entry: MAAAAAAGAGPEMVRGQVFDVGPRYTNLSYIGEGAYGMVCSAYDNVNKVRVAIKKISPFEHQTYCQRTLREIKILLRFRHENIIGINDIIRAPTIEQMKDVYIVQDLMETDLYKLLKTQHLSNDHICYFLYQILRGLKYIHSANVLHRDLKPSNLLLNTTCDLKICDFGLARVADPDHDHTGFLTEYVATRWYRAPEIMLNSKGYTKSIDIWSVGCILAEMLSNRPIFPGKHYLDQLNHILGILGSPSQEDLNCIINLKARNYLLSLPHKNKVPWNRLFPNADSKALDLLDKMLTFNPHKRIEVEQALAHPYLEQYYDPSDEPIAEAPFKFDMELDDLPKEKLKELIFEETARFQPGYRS

molecular target: MAPK1 (UniProt P28482); assay: kinase-Nluc reporter destabilization hit call (1 = scored as downregulated) (binary); higher = compound decreases kinase abundance; conditions: K562; 2-18 h

Row | Compound | kinase-Nluc reporter destabilization hit call
1 | C=CC(=O)N1CCC[C@@H](n2c(=O)n(-c3ccc(Oc4ccccc4)cc3)c3c(N)nccc32)C1 [Tolebrutinib] (10 µM) | inactive: 0
2 | C[C@]1(O)C[C@@](N)(c2ccc(-c3nc4n(c3-c3ccccc3)COc3ccncc3-4)cc2)C1 [TAS-117 (hydrochloride)] (10 µM) | inactive: 0
3 | CCOC(=O)C1=C[C@]2(CC)CCCN3CCc4c(n1c1ccccc41)[C@@H]32 [Vinpocetine] (10 µM) | inactive: 0
4 | CC(C)(C)NS(=O)(=O)c1cncc(-c2cc(F)c3nc(N)nn3c2)c1 (10 µM) | inactive: 0
5 | CC(C)(C)c1ccc(C(=O)Nc2cn3cc(-n4ccnc4)ccc3n2)cc1 (10 µM) | inactive: 0
6 | Cc1nc(NC(=O)N2CCC[C@H]2C(N)=O)sc1-c1csc(C(C)(C)C)n1 (10 µM) | inactive: 0
7 | N#Cc1cn([C@@H]2O[C@H](CO)[C@@H](O)[C@H]2O)c2nc[nH]c(=O)c12 [Jaspamycin] (10 µM) | inactive: 0
8 | Cc1ccc(-c2csc(Cn3nc(CC4OCCCO4)c4ccccc4c3=O)n2)cc1 (10 µM) | inactive: 0
9 | CNC(=O)c1c(C)oc2cc(Oc3ncnc4cc(OC)c(OC)cc34)ccc12 [Fruquintinib] (10 µM) | inactive: 0
10 | O=S(=O)(N=Cc1c(O)ccc2ccccc12)c1cccs1 (10 µM) | inactive: 0
11 | NC(=O)c1cccc2c(N[C@H](CN3CCC3)c3ccc(Cl)c(C(F)(F)F)c3)ncnc12 (10 µM) | inactive: 0
12 | CN1CCC(c2ccccc2CC(C)(C)Nc2nc(N3CCOCC3)nc(-n3c(S(C)(=O)=O)nc4ccccc43)n2)CC1 (10 µM) | inactive: 0
13 | O=c1ccc2cc(O)c(O)cc2o1 [Esculetin] (10 µM) | inactive: 0
14 | O=C(Nc1nc2cccc(-c3ccc(CN4CCS(=O)(=O)CC4)cc3)n2n1)C1CC1 [Filgotinib] (2.5 µM) | inactive: 0
15 | CC(C)(O)c1cc2nc(-c3cnc(N)nc3)nc(N3CCOCC3)c2s1 (2.5 µM) | inactive: 0
16 | Cn1cc(-c2ccc3ncc(Cc4ccc5ncccc5c4)n3n2)cn1 (10 µM) | inactive: 0
17 | CC(=O)c1cc(O)ccc1O [2,5-Dihydroxyacetophenone] (10 µM) | inactive: 0

Row | Compound | kinase-Nluc reporter destabilization hit call
18 | COc1ccc(COc2cc3oc(=O)c4cc(C(C)O)ccc4c3cc2OC)cc1 (stereo not drawn) [Palomid 529] (2.5 µM) | inactive: 0
19 | O=C(CC(c1ccccc1)C(C(=O)O)C(=O)O)c1ccc(C(F)(F)F)cc1 (stereo not drawn) (10 µM) | inactive: 0
20 | CC(C)[C@H](CO)Nc1nc(Nc2ccc(C(=O)O)c(Cl)c2)c2ncn(C(C)C)c2n1 [Purvalanol B] (10 µM) | inactive: 0
21 | COc1cc2nccc(Oc3ccc(NC(=O)Nc4ccc(F)cc4F)c(F)c3)c2cc1OC (10 µM) | inactive: 0
22 | N#C/C(=C\c1ccc[nH]1)c1ccc(Cl)c(Cl)c1 (2.5 µM) | inactive: 0
23 | O=c1cc(-c2ccc(O)cc2)oc2cc(O)c(O)c(O)c12 [Scutellarein] (10 µM) | inactive: 0
24 | CC(C)n1nc(C#Cc2ccccc2)c2c(N)ncnc21 (10 µM) | inactive: 0
25 | O=C(N=c1sccn1Cc1ccccc1)c1c[nH]c2ncccc12 (10 µM) | inactive: 0
26 | CC(C)=C/C=C1\O[C@@H]2CC(C)=CC(=O)[C@@H]2[C@]1(C)O [Bisabolangelone] (10 µM) | inactive: 0
27 | COc1ccc(C2CC(c3ccc(Cl)cc3)=NN2c2nc(-c3ccncc3)cs2)cc1 (stereo not drawn) [mTOR inhibitor-8] (10 µM) | inactive: 0
28 | Cc1cc(F)c(Nc2ncnc3cc(OCc4ccccc4)ccc23)cc1O (10 µM) | inactive: 0
29 | CNCCOc1ccccc1C(C)(C)Nc1nccn(-c2cc(C(=O)NC3CC3)ccc2C)c1=O [p38α inhibitor 2] (10 µM) | inactive: 0
30 | CCn1c(-c2nonc2N)nc2c(C#CCO)ncc(OCCCN)c21 [AKT Kinase Inhibitor] (10 µM) | inactive: 0
31 | NC(=O)c1nc(-c2c(F)cccc2Cl)oc1Nc1ccc(C(=O)N2CCOCC2)cc1 (10 µM) | inactive: 0
32 | O=C(NCc1cccc(O)c1)c1cc2cc(F)ccc2[nH]1 (10 µM) | inactive: 0
33 | Cc1nc(Nc2ncc(C(=O)Nc3c(C)cccc3Cl)s2)cc(N2CCN(C(=O)CCCCCCC(=O)N[C@H](C(=O)N3C[C@H](O)C[C@H]3C(=O)NCc3ccc(-c4scnc4C)cc3)C(C)(C)C)CC2)n1 (2.5 µM) | inactive: 0

Entries 20 to 21, quoted:
Row | Compound | kinase-Nluc reporter destabilization hit call
20 | CC(C)[C@H](CO)Nc1nc(Nc2ccc(C(=O)O)c(Cl)c2)c2ncn(C(C)C)c2n1 [Purvalanol B] (10 µM) | inactive: 0
21 | COc1cc2nccc(Oc3ccc(NC(=O)Nc4ccc(F)cc4F)c(F)c3)c2cc1OC (10 µM) | inactive: 0
